Source: PMC8466577

Protein sequences, listed by entry. Tags and fused reporters are not part of them.
UniProt P09429: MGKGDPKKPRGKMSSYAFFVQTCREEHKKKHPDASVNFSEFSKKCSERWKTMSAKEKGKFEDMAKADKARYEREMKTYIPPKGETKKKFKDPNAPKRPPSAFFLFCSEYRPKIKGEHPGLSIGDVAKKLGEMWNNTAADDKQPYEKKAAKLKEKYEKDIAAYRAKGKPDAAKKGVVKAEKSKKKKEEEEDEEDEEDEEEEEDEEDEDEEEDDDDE
UniProt Q09028: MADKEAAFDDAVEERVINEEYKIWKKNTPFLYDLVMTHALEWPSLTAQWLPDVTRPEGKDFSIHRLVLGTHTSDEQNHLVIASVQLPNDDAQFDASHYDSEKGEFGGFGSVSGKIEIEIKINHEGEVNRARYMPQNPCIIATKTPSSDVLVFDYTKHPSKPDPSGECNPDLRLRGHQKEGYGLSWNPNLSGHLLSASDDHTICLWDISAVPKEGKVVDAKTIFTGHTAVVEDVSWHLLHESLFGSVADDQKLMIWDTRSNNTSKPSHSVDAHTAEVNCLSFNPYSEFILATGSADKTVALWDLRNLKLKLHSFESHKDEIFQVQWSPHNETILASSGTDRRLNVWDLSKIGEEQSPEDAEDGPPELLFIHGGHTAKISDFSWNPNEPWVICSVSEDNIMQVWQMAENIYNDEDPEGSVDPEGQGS
UniProt Q14839: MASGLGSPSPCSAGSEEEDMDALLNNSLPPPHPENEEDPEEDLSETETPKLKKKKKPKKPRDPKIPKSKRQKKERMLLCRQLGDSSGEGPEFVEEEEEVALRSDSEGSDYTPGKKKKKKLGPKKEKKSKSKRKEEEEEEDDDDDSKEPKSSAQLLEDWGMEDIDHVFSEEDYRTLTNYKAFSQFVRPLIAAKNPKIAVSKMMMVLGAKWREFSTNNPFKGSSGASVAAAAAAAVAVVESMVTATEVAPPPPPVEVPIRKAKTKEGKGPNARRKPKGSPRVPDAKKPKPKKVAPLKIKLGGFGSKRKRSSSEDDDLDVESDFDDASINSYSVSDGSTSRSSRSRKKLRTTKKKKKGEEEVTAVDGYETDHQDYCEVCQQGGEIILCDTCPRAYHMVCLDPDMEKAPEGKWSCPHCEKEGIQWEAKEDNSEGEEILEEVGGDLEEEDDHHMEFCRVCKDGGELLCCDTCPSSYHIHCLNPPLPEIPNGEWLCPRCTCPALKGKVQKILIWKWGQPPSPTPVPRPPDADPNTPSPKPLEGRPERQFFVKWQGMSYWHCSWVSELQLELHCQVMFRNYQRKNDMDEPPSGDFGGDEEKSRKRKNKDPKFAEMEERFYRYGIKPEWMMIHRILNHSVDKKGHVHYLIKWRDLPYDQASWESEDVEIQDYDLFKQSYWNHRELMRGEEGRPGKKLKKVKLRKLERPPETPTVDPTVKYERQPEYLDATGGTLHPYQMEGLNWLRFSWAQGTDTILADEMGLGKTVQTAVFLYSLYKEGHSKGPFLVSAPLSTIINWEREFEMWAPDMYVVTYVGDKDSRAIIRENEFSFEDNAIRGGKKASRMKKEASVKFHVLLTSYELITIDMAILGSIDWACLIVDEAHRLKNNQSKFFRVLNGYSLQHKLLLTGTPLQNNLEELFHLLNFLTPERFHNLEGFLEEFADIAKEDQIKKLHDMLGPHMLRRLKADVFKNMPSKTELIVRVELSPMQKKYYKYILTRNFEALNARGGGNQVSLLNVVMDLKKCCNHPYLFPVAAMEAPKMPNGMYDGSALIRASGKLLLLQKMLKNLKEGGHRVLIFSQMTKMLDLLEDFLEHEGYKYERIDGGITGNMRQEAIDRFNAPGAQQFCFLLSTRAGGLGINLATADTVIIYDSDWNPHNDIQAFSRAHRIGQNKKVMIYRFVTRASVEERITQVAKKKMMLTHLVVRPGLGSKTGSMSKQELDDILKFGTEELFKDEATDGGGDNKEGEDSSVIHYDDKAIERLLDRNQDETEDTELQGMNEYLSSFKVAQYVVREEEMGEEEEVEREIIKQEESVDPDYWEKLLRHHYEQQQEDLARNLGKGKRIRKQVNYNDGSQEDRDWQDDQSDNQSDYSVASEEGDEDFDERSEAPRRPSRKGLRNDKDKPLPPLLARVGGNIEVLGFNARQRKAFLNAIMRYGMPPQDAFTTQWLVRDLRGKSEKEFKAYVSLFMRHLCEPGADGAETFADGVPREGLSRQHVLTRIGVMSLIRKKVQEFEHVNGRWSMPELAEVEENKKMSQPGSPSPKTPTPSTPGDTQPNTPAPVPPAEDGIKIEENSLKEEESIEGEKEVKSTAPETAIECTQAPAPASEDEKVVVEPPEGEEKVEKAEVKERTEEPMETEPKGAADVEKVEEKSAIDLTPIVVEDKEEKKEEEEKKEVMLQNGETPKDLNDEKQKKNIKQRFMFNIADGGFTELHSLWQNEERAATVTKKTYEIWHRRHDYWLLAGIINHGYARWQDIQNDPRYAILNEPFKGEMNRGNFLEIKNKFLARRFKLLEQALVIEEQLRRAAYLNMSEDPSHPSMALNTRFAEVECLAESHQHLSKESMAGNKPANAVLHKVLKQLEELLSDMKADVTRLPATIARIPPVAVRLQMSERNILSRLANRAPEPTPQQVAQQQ
UniProt Q13601: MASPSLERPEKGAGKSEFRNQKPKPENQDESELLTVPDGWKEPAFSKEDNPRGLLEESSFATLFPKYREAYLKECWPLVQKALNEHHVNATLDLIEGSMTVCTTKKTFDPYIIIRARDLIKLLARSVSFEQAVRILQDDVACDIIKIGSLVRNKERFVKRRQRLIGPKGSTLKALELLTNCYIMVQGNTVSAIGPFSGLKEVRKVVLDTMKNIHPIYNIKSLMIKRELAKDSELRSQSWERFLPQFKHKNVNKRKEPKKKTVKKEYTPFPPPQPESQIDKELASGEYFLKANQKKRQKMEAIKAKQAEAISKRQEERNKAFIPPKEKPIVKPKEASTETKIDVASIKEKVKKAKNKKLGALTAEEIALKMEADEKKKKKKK
UniProt Q13547: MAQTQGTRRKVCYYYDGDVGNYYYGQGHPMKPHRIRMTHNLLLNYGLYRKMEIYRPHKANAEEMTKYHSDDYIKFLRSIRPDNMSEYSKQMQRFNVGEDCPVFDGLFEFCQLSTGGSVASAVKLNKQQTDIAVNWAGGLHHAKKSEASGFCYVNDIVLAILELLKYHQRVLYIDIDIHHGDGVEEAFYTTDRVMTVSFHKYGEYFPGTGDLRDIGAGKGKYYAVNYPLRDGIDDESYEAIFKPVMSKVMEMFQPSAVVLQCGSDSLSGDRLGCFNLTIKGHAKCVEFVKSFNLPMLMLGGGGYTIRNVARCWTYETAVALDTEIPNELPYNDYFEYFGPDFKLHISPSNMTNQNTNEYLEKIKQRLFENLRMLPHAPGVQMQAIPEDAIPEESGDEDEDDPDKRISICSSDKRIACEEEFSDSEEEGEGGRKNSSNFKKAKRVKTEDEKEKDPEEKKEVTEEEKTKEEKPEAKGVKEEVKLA
UniProt Q14137: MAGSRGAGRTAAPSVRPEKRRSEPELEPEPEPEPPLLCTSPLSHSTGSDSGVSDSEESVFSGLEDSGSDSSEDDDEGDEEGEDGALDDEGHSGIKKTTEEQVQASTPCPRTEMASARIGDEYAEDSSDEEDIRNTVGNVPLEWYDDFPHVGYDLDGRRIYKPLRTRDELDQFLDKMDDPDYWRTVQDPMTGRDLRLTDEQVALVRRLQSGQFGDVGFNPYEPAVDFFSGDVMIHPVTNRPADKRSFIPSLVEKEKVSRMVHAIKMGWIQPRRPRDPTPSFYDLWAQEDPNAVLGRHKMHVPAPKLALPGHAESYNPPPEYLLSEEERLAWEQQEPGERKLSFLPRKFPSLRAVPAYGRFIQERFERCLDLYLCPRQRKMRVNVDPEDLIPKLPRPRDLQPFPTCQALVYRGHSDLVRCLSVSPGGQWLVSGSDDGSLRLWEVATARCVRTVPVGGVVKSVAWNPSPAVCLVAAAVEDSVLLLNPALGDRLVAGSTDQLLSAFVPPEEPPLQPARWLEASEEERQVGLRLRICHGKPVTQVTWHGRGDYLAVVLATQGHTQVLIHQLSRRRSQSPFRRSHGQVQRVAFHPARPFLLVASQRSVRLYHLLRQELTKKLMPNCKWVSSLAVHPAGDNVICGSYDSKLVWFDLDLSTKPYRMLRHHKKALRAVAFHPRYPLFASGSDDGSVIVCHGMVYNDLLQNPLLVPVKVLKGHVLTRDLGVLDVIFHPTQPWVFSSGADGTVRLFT

T1: THOC5 (human (endogenous in SKOV-3 and PC-3)) (UniProt Q13769)
T1 sequence: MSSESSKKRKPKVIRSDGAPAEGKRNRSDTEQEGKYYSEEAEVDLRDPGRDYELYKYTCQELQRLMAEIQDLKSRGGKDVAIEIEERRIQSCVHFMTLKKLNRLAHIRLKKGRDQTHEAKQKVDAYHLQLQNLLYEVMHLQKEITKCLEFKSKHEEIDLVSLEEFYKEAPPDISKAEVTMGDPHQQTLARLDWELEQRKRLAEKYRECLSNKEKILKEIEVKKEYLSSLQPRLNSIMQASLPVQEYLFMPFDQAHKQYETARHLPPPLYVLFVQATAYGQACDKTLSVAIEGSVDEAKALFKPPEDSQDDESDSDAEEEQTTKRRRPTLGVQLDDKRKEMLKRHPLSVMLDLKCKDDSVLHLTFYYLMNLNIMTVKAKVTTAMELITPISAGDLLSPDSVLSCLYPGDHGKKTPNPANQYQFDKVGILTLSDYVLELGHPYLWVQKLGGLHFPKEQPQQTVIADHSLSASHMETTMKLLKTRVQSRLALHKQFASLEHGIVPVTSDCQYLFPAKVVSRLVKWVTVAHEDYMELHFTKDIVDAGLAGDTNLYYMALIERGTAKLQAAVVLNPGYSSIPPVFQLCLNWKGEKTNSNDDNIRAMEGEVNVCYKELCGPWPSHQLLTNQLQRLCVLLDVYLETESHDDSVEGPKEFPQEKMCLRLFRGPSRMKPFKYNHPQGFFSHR


How the values were obtained:
[1] = target: HMGB1 (human (endogenous in SKOV-3 and PC-3)) (UniProt P09429); assay: affinity purification with mass spectrometry; anti-HMGB1 (Abcam ab18256) crosslinked to Protein G-Dynal beads; SKOV-3 and PC-3 whole-cell lysates (three IPs each) and nuclear and cytoplasmic fractions (one each), Benzonase-treated; 4 h at 4 °C; washes with 150 mM NaCl, 0.1% NP-40; IgG control; SAINT score cut-off 0.7
[2] = target: T1, THOC5 (human (endogenous in SKOV-3 and PC-3)); assay: affinity purification with mass spectrometry; anti-THOC5 (Abcam ab86070) crosslinked to Protein G-Dynal beads; PC-3 lysate, Benzonase-treated; 4 h at 4 °C; IgG control; SAINT score cut-off 0.7
[3] = target: HMGB1 (human (endogenous in SKOV-3 and PC-3)) (UniProt P09429); assay: affinity purification with mass spectrometry; anti-HMGB1 (Abcam ab18256) crosslinked to Protein G-Dynal beads; SKOV-3 and PC-3 whole-cell lysates (three IPs each) and nuclear and cytoplasmic fractions (one each), Benzonase-treated; 4 h at 4 °C; washes with 150 mM NaCl, 0.1% NP-40; IgG control; SAINT score cut-off 0.7; remark: listed apart in the source

binding [1] | binding [2] | binding [3] | Molecule
binds |  |  | RBBP4 (from UniProt Q09028 1-425)
binds |  |  | CHD4 (from UniProt Q14839 1-1912)
binds |  |  | KRR1 (from UniProt Q13601 1-381)
 | binds |  | RAB11 (human (endogenous in PC-3))
binds |  |  | HDAC1 (from UniProt Q13547 1-482)
binds |  |  | LYAR (from UniProt Q9NX58 1-379)
binds |  |  | BOP1 (from UniProt Q14137 1-746)
 | binds | binds | SEPT7 (protein, UniProt Q16181 1-437) MSVSARSAAAEERSVNSSTMVAQQKNLEGYVGFANLPNQVYRKSVKRGFEFTLMVVGESGLGKSTLINSLFLTDLYSPEYPGPSHRIKKTVQVEQSKVLIKEGGVQLLLTIVDTPGFGDAVDNSNCWQPVIDYIDSKFEDYLNAESRVNRRQMPDNRVQCCLYFIAPSGHGLKPLDIEFMKRLHEKVNIIPLIAKADTLTPEECQQFKKQIMKEIQEHKIKIYEFPETDDEEENKLVKKIKDRLPLAVVGSNTIIEVNGKRVRGRQYPWGVAEVENGEHCDFTILRNMLIRTHMQDLKDVTNNVHYENYRSRKLAAVTYNGVDNNKNKGQLTKSPLAQMEEERREHVAKMKKMEMEMEQVFEMKVKEKVQKLKDSEAELQRRHEQMKKNLEAQHKELEEKRRQFEDEKANWEAQQRILEQQNSSRTLEKNKKKGKIF
 | binds |  | THOC7 (protein, UniProt Q6I9Y2 1-204) MGAVTDDEVIRKRLLIDGDGAGDDRRINLLVKSFIKWCNSGSQEEGYSQYQRMLSTLSQCEFSMGKTLLVYDMNLREMENYEKIYKEIECSIAGAHEKIAECKKQILQAKRIRKNRQEYDALAKVIQHHPDRHETLKELEALGKELEHLSHIKESVEDKLELRRKQFHVLLSTIHELQQTLENDEKLSEVEEAQEASMETDPKP
 | binds | binds | SEPT9 (protein, UniProt Q9UHD8 1-586) MKKSYSGGTRTSSGRLRRLGDSSGPALKRSFEVEEVETPNSTPPRRVQTPLLRATVASSTQKFQDLGVKNSEPSARHVDSLSQRSPKASLRRVELSGPKAAEPVSRRTELSIDISSKQVENAGAIGPSRFGLKRAEVLGHKTPEPAPRRTEITIVKPQESAHRRMEPPASKVPEVPTAPATDAAPKRVEIQMPKPAEAPTAPSPAQTLENSEPAPVSQLQSRLEPKPQPPVAEATPRSQEATEAAPSCVGDMADTPRDAGLKQAPASRNEKAPVDFGYVGIDSILEQMRRKAMKQGFEFNIMVVGQSGLGKSTLINTLFKSKISRKSVQPTSEERIPKTIEIKSITHDIEEKGVRMKLTVIDTPGFGDHINNENCWQPIMKFINDQYEKYLQEEVNINRKKRIPDTRVHCCLYFIPATGHSLRPLDIEFMKRLSKVVNIVPVIAKADTLTLEERVHFKQRITADLLSNGIDVYPQKEFDEDSEDRLVNEKFREMIPFAVVGSDHEYQVNGKRILGRKTKWGTIEVENTTHCEFAYLRDLLIRTHMQNIKDITSSIHFEAYRVKRLNEGSSAMANGMEEKEPEAPEM
 | binds | binds | THOC6 (protein, UniProt Q86W42 1-341) MERAVPLAVPLGQTEVFQALQRLHMTIFSQSVSPCGKFLAAGNNYGQIAIFSLSSALSSEAKEESKKPVVTFQAHDGPVYSMVSTDRHLLSAGDGEVKAWLWAEMLKKGCKELWRRQPPYRTSLEVPEINALLLVPKENSLILAGGDCQLHTMDLETGTFTRVLRGHTDYIHCLALRERSPEVLSGGEDGAVRLWDLRTAKEVQTIEVYKHEECSRPHNGRWIGCLATDSDWMVCGGGPALTLWHLRSSTPTTIFPIRAPQKHVTFYQDLILSAGQGRCVNQWQLSGELKAQVPGSSPGLLSLSLNQQPAAPECKVLTAAGNSCRVDVFTNLGYRAFSLSF
 | binds | binds | THOC1 (protein, UniProt Q96FV9 1-657) MSPTPPLFSLPEARTRFTKSTREALNNKNIKPLLSTFSQVPGSENEKKCTLDQAFRGILEEEIINHSSCENVLAIISLAIGGVTEGICTASTPFVLLGDVLDCLPLDQCDTIFTFVEKNVATWKSNTFYSAGKNYLLRMCNDLLRRLSKSQNTVFCGRIQLFLARLFPLSEKSGLNLQSQFNLENVTVFNTNEQESTLGQKHTEDREEGMDVEEGEMGDEEAPTTCSIPIDYNLYRKFWSLQDYFRNPVQCYEKISWKTFLKYSEEVLAVFKSYKLDDTQASRKKMEELKTGGEHVYFAKFLTSEKLMDLQLSDSNFRRHILLQYLILFQYLKGQVKFKSSNYVLTDEQSLWIEDTTKSVYQLLSENPPDGERFSKMVEHILNTEENWNSWKNEGCPSFVKERTSDTKPTRIIRKRTAPEDFLGKGPTKKILMGNEELTRLWNLCPDNMEACKSETREHMPTLEEFFEEAIEQADPENMVENEYKAVNNSNYGWRALRLLARRSPHFFQPTNQQFKSLPEYLENMVIKLAKELPPPSEEIKTGEDEDEEDNDALLKENESPDVRRDKPVTGEQIEVFANKLGEQWKILAPYLEMKDSEIRQIECDSEDMKMRAKQLLVAWQDQEGVHATPENLINALNKSGLSDLAESLTNDNETNS
 |  | binds | SEPT6 (protein, UniProt Q14141 1-434) MAATDIARQVGEGCRTVPLAGHVGFDSLPDQLVNKSVSQGFCFNILCVGETGLGKSTLMDTLFNTKFEGEPATHTQPGVQLQSNTYDLQESNVRLKLTIVSTVGFGDQINKEDSYKPIVEFIDAQFEAYLQEELKIRRVLHTYHDSRIHVCLYFIAPTGHSLKSLDLVTMKKLDSKVNIIPIIAKADAISKSELTKFKIKITSELVSNGVQIYQFPTDDESVAEINGTMNAHLPFAVIGSTEELKIGNKMMRARQYPWGTVQVENEAHCDFVKLREMLIRVNMEDLREQTHTRHYELYRRCKLEEMGFKDTDPDSKPFSLQETYEAKRNEFLGELQKKEEEMRQMFVQRVKEKEAELKEAEKELHEKFDRLKKLHQDEKKKLEDKKKSLDDEVNAFKQRKTAAELLQSQGSQAGGSQTLKRDKEKKNNPWLCTE
 | binds | binds | SEPT2 (protein, UniProt Q15019 1-361) MSKQQPTQFINPETPGYVGFANLPNQVHRKSVKKGFEFTLMVVGESGLGKSTLINSLFLTDLYPERVIPGAAEKIERTVQIEASTVEIEERGVKLRLTVVDTPGYGDAINCRDCFKTIISYIDEQFERYLHDESGLNRRHIIDNRVHCCFYFISPFGHGLKPLDVAFMKAIHNKVNIVPVIAKADTLTLKERERLKKRILDEIEEHNIKIYHLPDAESDEDEDFKEQTRLLKASIPFSVVGSNQLIEAKGKKVRGRLYPWGVVEVENPEHNDFLKLRTMLITHMQDLQEVTQDLHYENFRSERLKRGGRKVENEDMNKDQILLEKEAELRRMQEMIARMQAQMQMQMQGGDGDGGALGHHV
 | binds | binds | SEPT11 (protein, UniProt Q9NVA2 1-429) MAVAVGRPSNEELRNLSLSGHVGFDSLPDQLVNKSTSQGFCFNILCVGETGIGKSTLMDTLFNTKFESDPATHNEPGVRLKARSYELQESNVRLKLTIVDTVGFGDQINKDDSYKPIVEYIDAQFEAYLQEELKIKRSLFNYHDTRIHACLYFIAPTGHSLKSLDLVTMKKLDSKVNIIPIIAKADTIAKNELHKFKSKIMSELVSNGVQIYQFPTDEETVAEINATMSVHLPFAVVGSTEEVKIGNKMAKARQYPWGVVQVENENHCDFVKLREMLIRVNMEDLREQTHTRHYELYRRCKLEEMGFKDTDPDSKPFSLQETYEAKRNEFLGELQKKEEEMRQMFVMRVKEKEAELKEAEKELHEKFDLLKRTHQEEKKKVEDKKKELEEEVNNFQKKKAAAQLLQSQAQQSGAQQTKKDKDKKNASFT
 | binds |  | THOC3 (protein, UniProt Q96J01 1-351) MAVPAAAMGPSALGQSGPGSMAPWCSVSSGPSRYVLGMQELFRGHSKTREFLAHSAKVHSVAWSCDGRRLASGSFDKTASVFLLEKDRLVKENNYRGHGDSVDQLCWHPSNPDLFVTASGDKTIRIWDVRTTKCIATVNTKGENINICWSPDGQTIAVGNKDDVVTFIDAKTHRSKAEEQFKFEVNEISWNNDNNMFFLTNGNGCINILSYPELKPVQSINAHPSNCICIKFDPMGKYFATGSADALVSLWDVDELVCVRCFSRLDWPVRTLSFSHDGKMLASASEDHFIDIAEVETGDKLWEVQCESPTFTVAWHPKRPLLAFACDDKDGKYDSSREAGTVKLFGLPNDS

Where two headings read alike, the source gives them in different places. These are yes or no findings as the source states them, for the method shown. In cells and extracts the contact can be indirect. These calls come from enrichment with a bait or labelling near it, and not all partners need be listed.
